Results on one substance are retold here after patent publication US20110217233A1.

Amino acid sequences for entries named in this document (tags omitted). Residues count along the entry.
UniProt P16070, residues 21-742: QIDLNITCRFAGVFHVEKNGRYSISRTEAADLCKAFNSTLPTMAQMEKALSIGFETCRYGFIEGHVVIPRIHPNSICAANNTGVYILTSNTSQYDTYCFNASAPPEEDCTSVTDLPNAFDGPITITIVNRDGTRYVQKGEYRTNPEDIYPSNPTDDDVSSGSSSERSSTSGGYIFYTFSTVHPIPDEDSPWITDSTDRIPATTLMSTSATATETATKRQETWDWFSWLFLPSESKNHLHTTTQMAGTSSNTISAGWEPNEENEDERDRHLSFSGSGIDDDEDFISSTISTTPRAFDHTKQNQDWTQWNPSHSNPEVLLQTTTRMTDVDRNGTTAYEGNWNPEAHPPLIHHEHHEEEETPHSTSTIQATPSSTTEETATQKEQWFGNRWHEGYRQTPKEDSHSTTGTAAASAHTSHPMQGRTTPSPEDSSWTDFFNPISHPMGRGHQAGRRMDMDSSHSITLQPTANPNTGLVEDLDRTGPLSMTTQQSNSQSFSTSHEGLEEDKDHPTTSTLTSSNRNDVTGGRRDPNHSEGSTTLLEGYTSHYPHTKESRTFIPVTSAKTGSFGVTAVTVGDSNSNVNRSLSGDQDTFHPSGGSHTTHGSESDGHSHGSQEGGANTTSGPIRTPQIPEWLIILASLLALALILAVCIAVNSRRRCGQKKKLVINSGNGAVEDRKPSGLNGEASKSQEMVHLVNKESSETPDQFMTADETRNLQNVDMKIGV

These are yes or no findings as the source states them, for the method shown. Some results given as binding are weak or reduced against the parent protein; the word gives no strength.

In this assay the target is CD44 of SKOV3 cells (human) (UniProt P16070). Description: non-reducing immunoblot with B-F24 of SKOV3 cells cultured 20 hr with 1 or 10 µM Å6 (CD44 self-association).

Take “CD44 of SKOV3 cells (from UniProt P16070 21-742) (receptor)”: the binding entry is on record as “binds”.
